Square brackets hold non-standard residues; d marks the D form. Cha = N[C@@H](CC1CCCCC1)C(=O)O
Test: general procedure: Fmoc solid-phase peptide synthesis; preloaded Fmoc-Leu-Wang resin (0.6-0.75 mmol/g) or Rink Amide resin (0.92 mmol/g); HBTU/DIPEA (manual, Activotec P11); DIC/Oxyma (Liberty Blue)
Details: whole synthesis, TFA salt
For Ac-KFc[PraCRDAzk]IQRMHLRQYhGluLL-OH, the isolated yield was 6%. Substance Ac-QRMHLRQYE[Cha]L-OH has an isolated yield of 8%. Work on Ac-FNDCRDIIQRMHLRQYELA-OH yielded an isolated yield of 17%. With Ac-KFNc[PraCRDAzk]IQRMHLRQYEIL-OH the isolated yield was 6%. Ac-FNc[PraCRDAzk]IQRMHLRQYQLL-OH showed an isolated yield of 9%. In the case of Ac-FNDCRDIIQRMHLRQYEAL-OH, the isolated yield was 21%. In the case of Ac-FNDCRDIIQRMHLRQYALL-OH, the isolated yield was 14%. With H-RDIIQRMHLRQYELL-OH the isolated yield was 16%. Substance Ac-FNc[PraCRDAzk]IQRMHLRQ2-NalELL-OH has an isolated yield of 1%. For Ac-KFNc[PraCRDAzk]IQRMHLRQYEChaL-OH, the isolated yield was 3%. Ac-FNDCRDIIQRMHLRQYEFL-OH showed an isolated yield of 18%. Work on Ac-FNc[AzkCRDPra]IQRMHLRQYELL-OH yielded an isolated yield of 10%. With Ac-RDIIQRc[AzkHLRPra]YELL-OH the isolated yield was 9%. With H-QRMHLRQYELL-OH the isolated yield was 4%. “H-FNDCRDc[EIQRK]HLRQYELL-OH (FNDCRDEIQRKHLRQYELL; cyclised or stapled)” gave an isolated yield of 17%. Work on Ac-FNc[PraCRDAzk]IQRMHLRQYHGluLL-OH yielded an isolated yield of 8%. In the case of Ac-FNDCRDc[EIQRK]HLRQYELL-OH, the isolated yield was 10%. Work on Ac-RDIIQRAzkHLRPraYELL-OH yielded an isolated yield of 24%. For Ac-KKKFNc[PraCRDAzk]IQRMHLRQYEFL-OH, the isolated yield was 3%. In the case of Ac-FNDCRDIIQRMHLRQYELL-OH, the isolated yield was 5%. Substance Ac-KKKFNc[PraCRDAzk]IQRMHLRQYELL-OH has an isolated yield of 11%. For Ac-FNDCRDIIQRMHLRQYE[Cha]L-OH, the isolated yield was 18%. For Ac-FNDCRDIIQRMHLRQAELL-OH, the isolated yield was 14%. In the case of Ac-FNDCRDIIQRMHLRQ[Cha]ELL-OH, the isolated yield was 13%. Ac-KKFNc[PraCRDAzk]IQRMHLRQYEChaL-OH gave an isolated yield of 7%. Substance Ac-FNDCRDIIQRMHLRQYEHL-OH has an isolated yield of 19%. Substance Ac-IIQRMHLRQYE[Cha]L-OH has an isolated yield of 33%. Work on Ac-FNc[S5CRDS5]IQRMHLRQYELL-OH yielded an isolated yield of 5%. Substance Ac-FNDCRDS5IQRS5HLRQYELL-OH has an isolated yield of 6%. With Ac-KFNc[PraCRDAzk]MHLRQYDLL-OH the isolated yield was 4%. Work on Ac-FNc[PraCRDAzk]IQRMHLRQYEIL-OH yielded an isolated yield of 12%. With Ac-FNECRDKIQRMHLRQYELL-OH the isolated yield was 6%. For Ac-FNDCRDEIQRKHLRQYELL-OH, the isolated yield was 10%. H-RDIIQRc[AzkHLRPra]YELL-OH gave an isolated yield of 4%. For Ac-NARRIFNDARDIIQRMHLRQYEWL-OH, the isolated yield was 12%. Substance Ac-KKKFNc[PraCRDAzk]IQRMHLRQYDLL-OH has an isolated yield of 2%. Ac-KFNc[PraCRDAzk]IQRMHLRQYELI-OH gave an isolated yield of 6%. Work on Ac-KKKFNc[PraCRDAzk]IQRMHLRQYEChaL-OH yielded an isolated yield of 8%. Work on Ac-FNDCRDc[R8IQRMHLS5]QYELL-OH yielded an isolated yield of 1%. In the case of Ac-KKKFNc[PraCRDAzk]IQRMHLRQWELL-OH, the isolated yield was 2%. Ac-FNDCRDIIQRMHLRQYEWL-OH gave an isolated yield of 17%. Substance Ac-FNc[PraCRDAzk]IQRMHLRQYELI-OH has an isolated yield of 14%. Ac-FNDCRDIIQRMHLRQYEL[Cha]-OH gave an isolated yield of 5%. In the case of Ac-KKKFNc[PraCRDAzk]IQRMHLRQYhGluLL-OH, the isolated yield was 2%. Substance Ac-FNDCRDc[PraIQRAzk]HLRQYELL-OH has an isolated yield of 5%. Ac-FNc[PraCRNAzk]IQRMHLRQYELL-OH gave an isolated yield of 11%. In the case of Ac-KKKFNc[PraCRDAzk]IQRMHLRQ2-NalELL-OH, the isolated yield was 1%. Ac-FNDCRDIIQRMHLRQYEYL-OH gave an isolated yield of 20%. H-FNDCRDIIQRMHLRQYELL-OH showed an isolated yield of 5%. Work on Ac-FNS5CRDS5IQRMHLRQYELL-OH yielded an isolated yield of 7%. In the case of Ac-RDIIQRc[AzkHLRPra]YEChaL-OH, the isolated yield was 16%. Ac-FNc[ECRDK]IQRMHLRQYELL-OH showed an isolated yield of 3%. Ac-FNDARDIIQRMHLRQYELL-OH gave an isolated yield of 21%. With Ac-FNc[PraCRDAzk]IQRMHLRQ1-NalELL-OH the isolated yield was 3.0%. Ac-FNc[PraCRDAzk]IQRMHLRQWELL-OH gave an isolated yield of 7%. In the case of Ac-RDIIQRMHLRQYE[Cha]L-OH, the isolated yield was 24%. Ac-NARRIFNDARDIIQRMHLRQYELL-OH gave an isolated yield of 13%. Work on Ac-FNDCRDc[S5IQRS5]HLRQYELL-OH yielded an isolated yield of 7%. Ac-QRMHLRQYELL-OH showed an isolated yield of 14%. Ac-FNc[PraCRDAzk]IQRMHLRQYELL-NH2 gave an isolated yield of 11%. With Ac-RFNc[PraCRDAzk]IQRMHLRQYELL-OH the isolated yield was 7%. Ac-FNc[PraCRDAzk]IQRMHLRQYDLL-OH gave an isolated yield of 6%. In the case of Ac-FNc[PraCRDAzk]IQRMHLRQYELL-OH, the isolated yield was 15%. Work on Ac-RRIFNDCRDIIQRMHLRQYELL-OH yielded an isolated yield of 12%. Ac-KKKRDIIQRc[AzkHLRPra]YEChaL-OH gave an isolated yield of 8%. For Ac-RDIIQRMHLRQYELL-OH, the isolated yield was 17%.

Same assay, conditions: whole synthesis, TFA salt, cyclic
Ac-KKKFN-[PraCRDAzk]IQRMHLRQYELI-OH gave an isolated yield of 3%.

— patent publication US20240083958A1 (VRIJE UNIVERSITEIT BRUSSEL, priority 2020, published 2024)
